The record followed here is PMC10992996.

Protein sequences, listed by entry. Tags and fused reporters are not part of them. Lines headed by an entry give the natural chain unless they say otherwise; changes in a name come on top. Residues count along the entry.
UniProt Q5IJ48, residues 29-1285: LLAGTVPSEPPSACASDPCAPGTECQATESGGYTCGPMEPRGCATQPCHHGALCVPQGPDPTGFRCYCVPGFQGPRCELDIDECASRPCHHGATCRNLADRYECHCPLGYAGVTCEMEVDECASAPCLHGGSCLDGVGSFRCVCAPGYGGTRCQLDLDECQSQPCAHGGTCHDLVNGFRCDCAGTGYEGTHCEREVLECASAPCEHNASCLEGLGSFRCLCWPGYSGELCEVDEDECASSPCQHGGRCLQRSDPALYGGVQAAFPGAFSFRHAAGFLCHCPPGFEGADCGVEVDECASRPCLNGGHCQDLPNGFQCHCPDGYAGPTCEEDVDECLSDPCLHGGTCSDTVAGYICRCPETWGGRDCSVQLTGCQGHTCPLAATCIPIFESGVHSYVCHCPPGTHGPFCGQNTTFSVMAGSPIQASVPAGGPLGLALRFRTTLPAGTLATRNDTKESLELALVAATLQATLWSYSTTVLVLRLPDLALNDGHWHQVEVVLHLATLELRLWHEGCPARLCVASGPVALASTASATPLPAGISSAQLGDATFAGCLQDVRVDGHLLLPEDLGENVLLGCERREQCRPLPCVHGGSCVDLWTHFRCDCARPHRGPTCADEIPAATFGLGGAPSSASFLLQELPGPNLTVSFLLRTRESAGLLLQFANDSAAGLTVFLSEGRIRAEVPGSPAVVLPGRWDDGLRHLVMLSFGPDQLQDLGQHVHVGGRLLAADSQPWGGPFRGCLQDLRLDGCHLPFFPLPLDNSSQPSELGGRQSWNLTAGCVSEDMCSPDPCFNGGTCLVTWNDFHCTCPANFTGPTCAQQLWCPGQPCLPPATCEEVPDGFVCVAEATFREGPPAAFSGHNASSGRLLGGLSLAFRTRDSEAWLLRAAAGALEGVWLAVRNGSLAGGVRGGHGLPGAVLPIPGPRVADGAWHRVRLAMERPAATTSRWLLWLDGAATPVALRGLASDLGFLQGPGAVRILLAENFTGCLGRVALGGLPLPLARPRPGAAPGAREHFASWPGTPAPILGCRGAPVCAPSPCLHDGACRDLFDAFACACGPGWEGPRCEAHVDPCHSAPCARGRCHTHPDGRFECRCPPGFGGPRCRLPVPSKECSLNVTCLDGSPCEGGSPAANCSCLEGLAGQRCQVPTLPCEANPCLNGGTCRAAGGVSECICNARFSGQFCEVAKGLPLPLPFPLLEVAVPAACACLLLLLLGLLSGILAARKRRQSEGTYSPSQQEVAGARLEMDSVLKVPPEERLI

For test [1], the target named is Human canonical CRB2 (Crumbs homolog 2) (human) (UniProt Q5IJ48). The test is described as follows: co-IP; HEK293T cells co-transfected pairwise with a FLAG and an HA construct, 48 h; lysis in TBS (30 mM Tris-HCl pH 7.4, 150 mM NaCl) with 0.5% Nonidet P40; FLAG-IP on ANTI-FLAG M2 Affinity Gel 60-90 min at 4°C, elution with FLAG peptide; Western blot with HA and FLAG antibodies; for mutants HA/FLAG signal in eluates relative to WT, three biological replicates. (In general: A western blot detects proteins with antibodies after separation by electrophoresis.)

Test [2] has as its target T1, CRB1-FLAG p.C681Y (human) (UniProt P82279).
T1 sequence: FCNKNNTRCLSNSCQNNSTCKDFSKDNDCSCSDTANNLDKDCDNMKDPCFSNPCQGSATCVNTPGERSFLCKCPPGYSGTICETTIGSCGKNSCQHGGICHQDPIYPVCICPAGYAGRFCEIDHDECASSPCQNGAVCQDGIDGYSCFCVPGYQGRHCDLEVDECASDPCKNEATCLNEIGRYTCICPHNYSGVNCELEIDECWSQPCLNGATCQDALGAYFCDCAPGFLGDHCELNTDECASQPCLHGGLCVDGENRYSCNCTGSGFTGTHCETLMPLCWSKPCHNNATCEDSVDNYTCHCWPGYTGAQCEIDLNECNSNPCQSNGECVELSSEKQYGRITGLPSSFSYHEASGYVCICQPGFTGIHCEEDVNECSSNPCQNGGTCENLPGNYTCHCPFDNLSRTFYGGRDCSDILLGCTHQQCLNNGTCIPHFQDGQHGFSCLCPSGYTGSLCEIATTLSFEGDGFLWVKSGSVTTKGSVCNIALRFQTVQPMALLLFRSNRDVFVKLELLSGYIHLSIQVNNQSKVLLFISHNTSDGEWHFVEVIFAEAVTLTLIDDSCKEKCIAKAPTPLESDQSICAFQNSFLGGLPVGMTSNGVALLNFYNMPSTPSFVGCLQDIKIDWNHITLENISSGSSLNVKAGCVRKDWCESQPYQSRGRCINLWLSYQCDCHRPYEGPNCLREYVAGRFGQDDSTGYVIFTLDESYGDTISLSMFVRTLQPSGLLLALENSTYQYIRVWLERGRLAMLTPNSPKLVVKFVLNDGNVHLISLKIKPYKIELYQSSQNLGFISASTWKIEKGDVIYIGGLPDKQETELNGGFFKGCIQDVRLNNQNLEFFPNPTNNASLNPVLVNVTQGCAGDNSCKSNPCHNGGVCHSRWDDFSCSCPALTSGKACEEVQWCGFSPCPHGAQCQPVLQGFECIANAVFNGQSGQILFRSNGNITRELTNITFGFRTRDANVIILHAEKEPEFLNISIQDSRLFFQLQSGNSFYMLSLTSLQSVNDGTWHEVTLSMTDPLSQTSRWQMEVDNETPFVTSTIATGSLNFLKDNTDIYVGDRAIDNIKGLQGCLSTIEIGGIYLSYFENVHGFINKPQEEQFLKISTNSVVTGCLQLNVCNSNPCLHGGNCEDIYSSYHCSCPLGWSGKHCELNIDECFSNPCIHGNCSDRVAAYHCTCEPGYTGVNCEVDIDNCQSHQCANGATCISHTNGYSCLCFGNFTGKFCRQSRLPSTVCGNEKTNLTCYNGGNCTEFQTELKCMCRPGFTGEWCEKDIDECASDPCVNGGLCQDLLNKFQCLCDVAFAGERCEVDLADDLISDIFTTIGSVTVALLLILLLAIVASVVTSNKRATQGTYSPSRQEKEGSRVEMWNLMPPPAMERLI
Described as above.

These are yes or no findings as the source states them, for the method shown. In cells and extracts the contact can be indirect. Some binding calls cover weakened binding; strength is not graded here. For some assays here: Tags and fused reporters may be left off the sequences shown.

Regarding “Human canonical CRB2 (Crumbs homolog 2) (from UniProt Q5IJ48-1 29-1285)”, the binding result in test [1] and in test [2] was “binds” each time.
